According to the supplement of paper PMC7666118:
The list shows a part of the results.

The chains behind the UniProt entries cited, without tags or fusion partners. Where a name states a change or a piece, a line headed by the entry shows the natural chain unless it says otherwise.
UniProt P48739: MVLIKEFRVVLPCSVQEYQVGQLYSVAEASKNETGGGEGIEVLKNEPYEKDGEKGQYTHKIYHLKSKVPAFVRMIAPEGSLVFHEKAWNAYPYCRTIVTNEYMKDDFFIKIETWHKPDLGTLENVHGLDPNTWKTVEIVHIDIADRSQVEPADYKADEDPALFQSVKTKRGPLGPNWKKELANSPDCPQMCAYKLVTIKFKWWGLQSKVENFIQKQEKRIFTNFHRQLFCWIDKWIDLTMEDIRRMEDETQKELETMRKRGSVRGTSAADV
UniProt O14737: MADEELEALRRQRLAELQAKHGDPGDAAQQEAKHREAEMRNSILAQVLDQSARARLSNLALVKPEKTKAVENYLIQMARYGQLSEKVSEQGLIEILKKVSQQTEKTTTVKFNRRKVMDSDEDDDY
UniProt Q8TBF5: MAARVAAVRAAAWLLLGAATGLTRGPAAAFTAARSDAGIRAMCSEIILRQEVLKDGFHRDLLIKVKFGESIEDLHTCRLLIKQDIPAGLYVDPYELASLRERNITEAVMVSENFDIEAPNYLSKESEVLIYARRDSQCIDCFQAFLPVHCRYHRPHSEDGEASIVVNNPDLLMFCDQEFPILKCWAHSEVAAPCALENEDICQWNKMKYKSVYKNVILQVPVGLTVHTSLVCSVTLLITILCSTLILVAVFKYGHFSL
UniProt Q32NB8: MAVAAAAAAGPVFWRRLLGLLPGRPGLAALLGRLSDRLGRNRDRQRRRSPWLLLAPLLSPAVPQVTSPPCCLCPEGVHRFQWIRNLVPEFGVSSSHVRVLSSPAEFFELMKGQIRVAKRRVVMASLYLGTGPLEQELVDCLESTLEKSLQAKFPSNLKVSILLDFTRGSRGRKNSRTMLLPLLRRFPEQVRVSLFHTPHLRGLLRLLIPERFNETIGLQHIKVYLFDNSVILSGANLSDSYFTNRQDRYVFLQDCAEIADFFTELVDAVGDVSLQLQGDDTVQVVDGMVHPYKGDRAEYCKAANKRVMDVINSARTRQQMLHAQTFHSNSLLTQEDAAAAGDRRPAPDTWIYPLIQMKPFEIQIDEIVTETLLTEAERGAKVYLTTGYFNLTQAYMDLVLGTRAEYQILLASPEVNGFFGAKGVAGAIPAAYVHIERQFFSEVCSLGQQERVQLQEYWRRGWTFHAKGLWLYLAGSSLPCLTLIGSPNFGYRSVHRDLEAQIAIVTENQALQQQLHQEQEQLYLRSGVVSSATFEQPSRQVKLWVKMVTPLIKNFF
UniProt Q9NR12, whole entry: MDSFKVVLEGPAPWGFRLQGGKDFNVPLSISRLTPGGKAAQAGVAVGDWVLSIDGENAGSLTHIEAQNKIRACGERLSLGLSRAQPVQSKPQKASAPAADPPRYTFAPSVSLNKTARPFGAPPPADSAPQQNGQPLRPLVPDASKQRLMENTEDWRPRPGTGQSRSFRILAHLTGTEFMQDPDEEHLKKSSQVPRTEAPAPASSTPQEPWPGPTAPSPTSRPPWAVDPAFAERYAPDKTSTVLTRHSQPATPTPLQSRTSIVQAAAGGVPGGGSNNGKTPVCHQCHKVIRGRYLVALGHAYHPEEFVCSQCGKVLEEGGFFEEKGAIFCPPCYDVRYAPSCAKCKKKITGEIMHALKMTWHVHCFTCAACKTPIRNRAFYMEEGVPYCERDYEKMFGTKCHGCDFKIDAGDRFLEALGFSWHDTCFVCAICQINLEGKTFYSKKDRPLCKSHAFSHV
UniProt P68402: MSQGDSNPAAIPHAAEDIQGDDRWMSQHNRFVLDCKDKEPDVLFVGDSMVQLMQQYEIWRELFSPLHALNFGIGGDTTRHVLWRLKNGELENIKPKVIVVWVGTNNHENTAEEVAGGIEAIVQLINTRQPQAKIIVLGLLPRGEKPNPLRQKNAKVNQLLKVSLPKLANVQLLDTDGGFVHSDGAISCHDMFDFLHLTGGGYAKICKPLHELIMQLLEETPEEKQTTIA
UniProt P18669: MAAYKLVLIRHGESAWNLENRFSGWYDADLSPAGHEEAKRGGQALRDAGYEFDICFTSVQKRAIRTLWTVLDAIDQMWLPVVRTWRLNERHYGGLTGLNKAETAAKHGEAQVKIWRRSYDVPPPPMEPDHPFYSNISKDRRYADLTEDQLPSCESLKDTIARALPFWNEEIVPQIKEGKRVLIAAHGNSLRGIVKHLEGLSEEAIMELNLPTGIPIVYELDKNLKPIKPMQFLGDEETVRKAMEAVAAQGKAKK
UniProt Q8IZ21: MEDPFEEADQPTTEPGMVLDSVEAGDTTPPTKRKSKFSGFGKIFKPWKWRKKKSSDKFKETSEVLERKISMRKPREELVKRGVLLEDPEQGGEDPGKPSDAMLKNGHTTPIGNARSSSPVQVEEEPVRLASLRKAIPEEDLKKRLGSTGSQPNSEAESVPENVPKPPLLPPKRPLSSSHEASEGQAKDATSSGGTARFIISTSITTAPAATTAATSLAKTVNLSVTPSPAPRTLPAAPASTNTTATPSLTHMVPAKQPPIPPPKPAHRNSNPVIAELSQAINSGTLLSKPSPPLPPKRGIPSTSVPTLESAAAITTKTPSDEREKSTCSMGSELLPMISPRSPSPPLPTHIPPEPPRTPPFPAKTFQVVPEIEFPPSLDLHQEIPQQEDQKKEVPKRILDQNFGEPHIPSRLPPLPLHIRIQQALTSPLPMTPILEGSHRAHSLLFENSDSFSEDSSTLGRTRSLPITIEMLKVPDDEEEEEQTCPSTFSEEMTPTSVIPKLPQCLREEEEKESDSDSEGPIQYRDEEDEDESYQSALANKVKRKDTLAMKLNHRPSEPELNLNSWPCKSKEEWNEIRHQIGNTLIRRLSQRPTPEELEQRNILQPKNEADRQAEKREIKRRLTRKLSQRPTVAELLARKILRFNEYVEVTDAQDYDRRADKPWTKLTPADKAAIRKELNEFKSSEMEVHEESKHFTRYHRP
UniProt Q96RG2: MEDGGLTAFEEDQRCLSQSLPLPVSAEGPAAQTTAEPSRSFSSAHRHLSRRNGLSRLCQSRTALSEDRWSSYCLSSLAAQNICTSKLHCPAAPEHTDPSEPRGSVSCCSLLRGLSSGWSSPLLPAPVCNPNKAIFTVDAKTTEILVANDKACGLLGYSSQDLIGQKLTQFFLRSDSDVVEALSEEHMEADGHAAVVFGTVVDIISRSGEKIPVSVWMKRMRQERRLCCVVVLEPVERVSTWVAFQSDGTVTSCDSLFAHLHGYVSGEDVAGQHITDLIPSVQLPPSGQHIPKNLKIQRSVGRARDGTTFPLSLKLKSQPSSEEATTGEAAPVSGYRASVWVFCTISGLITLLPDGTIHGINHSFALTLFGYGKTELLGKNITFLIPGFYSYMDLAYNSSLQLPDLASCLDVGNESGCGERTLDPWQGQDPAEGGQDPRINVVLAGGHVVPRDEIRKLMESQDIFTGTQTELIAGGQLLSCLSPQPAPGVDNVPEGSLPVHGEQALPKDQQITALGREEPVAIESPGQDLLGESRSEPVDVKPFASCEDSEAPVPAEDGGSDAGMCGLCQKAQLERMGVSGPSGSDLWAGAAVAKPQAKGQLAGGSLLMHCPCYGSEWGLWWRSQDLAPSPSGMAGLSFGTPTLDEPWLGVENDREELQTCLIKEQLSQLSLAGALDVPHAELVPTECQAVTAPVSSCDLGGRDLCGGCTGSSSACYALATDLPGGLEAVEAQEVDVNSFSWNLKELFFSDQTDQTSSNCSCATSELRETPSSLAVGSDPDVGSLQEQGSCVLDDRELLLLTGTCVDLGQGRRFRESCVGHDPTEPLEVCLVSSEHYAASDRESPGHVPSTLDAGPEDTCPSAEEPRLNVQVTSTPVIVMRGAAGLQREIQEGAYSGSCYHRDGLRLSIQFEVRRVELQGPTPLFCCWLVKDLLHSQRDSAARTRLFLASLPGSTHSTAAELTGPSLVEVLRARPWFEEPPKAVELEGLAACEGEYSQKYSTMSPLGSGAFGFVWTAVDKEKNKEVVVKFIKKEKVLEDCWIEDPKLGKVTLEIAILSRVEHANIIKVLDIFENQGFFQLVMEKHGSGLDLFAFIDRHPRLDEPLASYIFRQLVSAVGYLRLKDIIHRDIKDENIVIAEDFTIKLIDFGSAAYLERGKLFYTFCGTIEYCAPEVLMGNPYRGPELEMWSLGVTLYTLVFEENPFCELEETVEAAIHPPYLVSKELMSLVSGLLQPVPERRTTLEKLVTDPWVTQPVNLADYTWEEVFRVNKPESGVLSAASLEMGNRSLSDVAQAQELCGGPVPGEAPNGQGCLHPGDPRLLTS
UniProt P35232: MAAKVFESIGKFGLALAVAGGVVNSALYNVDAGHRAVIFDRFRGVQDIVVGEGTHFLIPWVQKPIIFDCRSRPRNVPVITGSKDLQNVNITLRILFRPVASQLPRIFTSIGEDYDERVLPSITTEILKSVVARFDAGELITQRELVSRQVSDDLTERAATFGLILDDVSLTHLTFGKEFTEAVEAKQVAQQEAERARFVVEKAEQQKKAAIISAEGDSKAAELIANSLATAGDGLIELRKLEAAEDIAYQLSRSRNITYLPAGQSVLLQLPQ
UniProt O43933: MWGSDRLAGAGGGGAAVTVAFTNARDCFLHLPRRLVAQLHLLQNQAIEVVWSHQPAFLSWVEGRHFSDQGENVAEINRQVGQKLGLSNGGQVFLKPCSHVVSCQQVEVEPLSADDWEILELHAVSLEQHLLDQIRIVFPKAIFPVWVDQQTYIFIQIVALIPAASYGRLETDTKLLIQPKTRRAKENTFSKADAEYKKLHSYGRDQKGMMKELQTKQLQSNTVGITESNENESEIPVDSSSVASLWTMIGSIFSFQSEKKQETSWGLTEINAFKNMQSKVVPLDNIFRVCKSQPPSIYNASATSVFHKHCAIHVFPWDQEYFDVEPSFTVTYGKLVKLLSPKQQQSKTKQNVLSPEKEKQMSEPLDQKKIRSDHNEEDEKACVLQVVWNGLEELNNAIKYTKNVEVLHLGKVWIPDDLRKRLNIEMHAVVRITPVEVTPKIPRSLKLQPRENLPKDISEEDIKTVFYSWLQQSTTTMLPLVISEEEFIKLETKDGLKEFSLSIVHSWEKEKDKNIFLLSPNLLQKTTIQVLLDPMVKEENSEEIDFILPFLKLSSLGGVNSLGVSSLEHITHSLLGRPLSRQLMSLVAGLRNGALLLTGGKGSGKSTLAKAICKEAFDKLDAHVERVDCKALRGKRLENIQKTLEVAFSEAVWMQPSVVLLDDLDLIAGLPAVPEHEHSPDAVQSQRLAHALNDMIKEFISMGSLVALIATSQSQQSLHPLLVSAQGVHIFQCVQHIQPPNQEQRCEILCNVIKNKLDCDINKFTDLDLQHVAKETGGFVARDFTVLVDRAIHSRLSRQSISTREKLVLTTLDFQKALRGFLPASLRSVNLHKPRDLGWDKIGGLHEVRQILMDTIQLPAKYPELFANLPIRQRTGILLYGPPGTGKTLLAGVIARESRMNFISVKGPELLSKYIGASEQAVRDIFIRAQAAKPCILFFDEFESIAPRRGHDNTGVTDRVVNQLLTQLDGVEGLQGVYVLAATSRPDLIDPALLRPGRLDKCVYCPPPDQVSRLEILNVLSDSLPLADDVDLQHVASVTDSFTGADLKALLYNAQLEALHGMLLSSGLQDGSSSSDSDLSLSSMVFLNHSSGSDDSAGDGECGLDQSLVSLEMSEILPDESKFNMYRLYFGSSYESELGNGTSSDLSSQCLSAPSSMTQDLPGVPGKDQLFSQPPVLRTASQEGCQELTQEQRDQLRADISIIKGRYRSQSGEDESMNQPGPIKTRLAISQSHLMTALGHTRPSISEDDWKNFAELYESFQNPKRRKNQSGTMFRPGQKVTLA
UniProt Q9NQP4, whole entry: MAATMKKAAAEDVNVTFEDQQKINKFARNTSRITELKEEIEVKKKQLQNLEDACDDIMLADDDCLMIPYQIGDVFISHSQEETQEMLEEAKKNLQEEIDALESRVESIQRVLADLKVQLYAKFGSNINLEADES
UniProt Q96HC4: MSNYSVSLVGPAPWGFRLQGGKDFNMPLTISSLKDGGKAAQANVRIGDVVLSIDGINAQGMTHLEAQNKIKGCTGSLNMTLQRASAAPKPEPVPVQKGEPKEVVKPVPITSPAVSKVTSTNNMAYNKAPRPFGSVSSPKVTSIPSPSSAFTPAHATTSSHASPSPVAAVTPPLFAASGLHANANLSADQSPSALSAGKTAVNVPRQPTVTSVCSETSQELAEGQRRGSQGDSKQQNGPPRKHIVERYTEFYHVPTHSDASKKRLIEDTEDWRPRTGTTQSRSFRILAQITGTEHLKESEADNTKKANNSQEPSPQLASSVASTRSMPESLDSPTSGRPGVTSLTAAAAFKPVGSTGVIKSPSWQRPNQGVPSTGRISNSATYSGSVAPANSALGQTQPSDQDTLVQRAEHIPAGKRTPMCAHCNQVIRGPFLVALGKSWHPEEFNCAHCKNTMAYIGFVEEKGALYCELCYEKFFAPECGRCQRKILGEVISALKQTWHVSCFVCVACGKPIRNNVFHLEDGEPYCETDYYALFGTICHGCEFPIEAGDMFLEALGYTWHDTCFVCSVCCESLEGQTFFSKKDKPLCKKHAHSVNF

Compound: COc1ccc(Cn2ccc3cc(C)c(C(=O)NO)cc32)cc1
Assay: dose-dependent thermal stabilisation call (2D-TPP, DLPTP, 10% FDR) (binary (1 = stabilised)); higher = stabilised by the compound
Conditions: system: HL-60 intact cells; concentration range 0.04-10 µM
Experimental: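 2D thermal proteome profiling in intact HL-60 cells treated with BRD-3811 (0, 0.04, 0.29, 2, 10 uM) for 90 min at 37 C, then heated 3 min at one of 12 temperatures (42-63.9 C). Soluble protein was quantified by TMT10 MS. The value is the DLPTP call of the paper: dose-dependent thermal stabilisation over all temperatures at 10% FDR (F-test of a dose-response against a flat model); one experiment, one call per tested protein.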

Target | dose-dependent thermal stabilisation call
PDXDC1 (UniProt Q6P996) | inactive: 0
OXSM (UniProt Q9NWU1) | inactive: 0
PAF1 (UniProt Q8N7H5) | inactive: 0
PEX5 (UniProt P50542) | inactive: 0
PITPNB (UniProt P48739) | inactive: 0
PHKG2 (UniProt P15735) | inactive: 0
PIK3CA (UniProt P42336) | inactive: 0
PEX19 (UniProt P40855) | inactive: 0
PDCD5 (UniProt O14737) | inactive: 0
PIGX (UniProt Q8TBF5) | inactive: 0
PGS1 (UniProt Q32NB8) | inactive: 0
PITRM1 (UniProt Q5JRX3) | inactive: 0
PDHX (UniProt O00330) | inactive: 0
PDLIM7 (UniProt Q9NR12) | inactive: 0
PAFAH1B2 (UniProt P68402) | inactive: 0
PIGM (UniProt Q9H3S5) | inactive: 0
PGAM1 (UniProt P18669) | inactive: 0
PHACTR4 (UniProt Q8IZ21) | inactive: 0

2 records picked at random from the list so far:
Target | dose-dependent thermal stabilisation call
PITPNB (UniProt P48739) | inactive: 0
PGS1 (UniProt Q32NB8) | inactive: 0

Next records:

Target | dose-dependent thermal stabilisation call
PAPD4 (UniProt Q6PIY7) | inactive: 0
PLEKHG4 (UniProt Q58EX7) | inactive: 0
OSGEP (UniProt Q9NPF4) | inactive: 0
PASK (UniProt Q96RG2) | inactive: 0
PABPC4 (UniProt Q13310) | inactive: 0
PHB (UniProt P35232) | inactive: 0
PELO (UniProt Q9BRX2) | inactive: 0
PEX1 (UniProt O43933) | inactive: 0
PDLIM2 (UniProt Q96JY6) | inactive: 0
PFKM (UniProt P08237) | inactive: 0
PDE12 (UniProt Q6L8Q7) | inactive: 0
PLCG2 (UniProt P16885) | inactive: 0
PFDN4 (UniProt Q9NQP4) | inactive: 0
PARG (UniProt Q86W56) | inactive: 0
PHF14 (UniProt O94880) | inactive: 0
PDLIM5 (UniProt Q96HC4) | inactive: 0
OLA1 (UniProt Q9NTK5) | inactive: 0
OTUB1 (UniProt Q96FW1) | inactive: 0
